Laboratory results reported in the supplement of paper PMC10689618.
Some of the results follow. Single values are uncertain, as repeats are few or missing.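 Labelled rat cortical synaptosomes were engulfed by primary human fetal astrocytes. Engulfment equaled a red/green ratio, corrected for calcein live-cell signal and normalized to the plate median. Compounds were toxic when calcein dropped over 30%, and reduced phagocytosis when below 70% of the median above 5 µM.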

What follows are compounds tested on Human fetal astrocytes (assay: loss of total cells relative to no-compound high-control median (toxicity); higher = more toxic (fewer cells)). Settings: 11.11 µM; 24 h.

Row | SMILES | loss of total cells [%]
1 | CC(C(=O)O)c1ccc(C(=O)c2cccs2)cc1 (centres undefined) | 0
2 | CN1CC(=O)NC1=N | -14.6
3 | C=C[C@@H](C1=CC(=O)C(OC)=C(OC)C1=O)c1ccccc1 | 60.6
4 | C[C@]12CCC(=O)C=C1CC[C@@H]1[C@@H]2[C@@H](O)C[C@@]2(C)[C@H]1CC[C@]2(O)C(=O)COP(=O)(O)O | 11.2
5 | C[N+](C)(C)C[C@H](O)CC(=O)[O-] | 35.1
6 | C[C@H]1COC2=C1C(=O)C(=O)c1c2ccc2c1CCCC2(C)C | 17.6
7 | NC[C@H]1CC[C@H](C(=O)O)CC1 | 0
8 | COc1ccc(-c2cc(=O)c3c(O)cc(OC)c(OC)c3o2)c(OC)c1 | 4.7
9 | COc1cc(O)c(C(C)=O)c(O)c1 | 17.6
10 | COc1ccc([C@H]2Oc3cc(OC)cc(OC)c3C[C@H]2O)cc1 | 3.9
11 | O=C(O)[C@H](O)[C@@H](O)[C@H](O[C@@H]1O[C@H](CO)[C@H](O)[C@H](O)[C@H]1O)[C@H](O)CO | -1.3
12 | CCOc1ccc(NC(=O)CC(C)O)cc1 (centres undefined) | 10.5
13 | Cc1ccc(S(=O)(=O)NC(=O)NN2CCCCCC2)cc1 [Tolazamide] | -10.9
14 | c1ccc(CN(CC2=NCCN2)c2ccccc2)cc1 | 2.3
15 | CC(C)(C)NCC(O)c1cc(O)cc(O)c1 (centres undefined) | -16.4
16 | CC(C)(Oc1ccc(CCNC(=O)c2ccc(Cl)cc2)cc1)C(=O)O | -32
17 | O=C(O)CS | 18.9
18 | NC(=O)N1c2ccccc2CC(=O)c2ccccc21 [Trileptal] | 50.8
19 | CC(C)=CCC[C@@H](C)[C@@H]1CC[C@]2(C)C3=C(CC[C@@]12C)[C@@]1(C)CC[C@H](O)C(C)(C)[C@@H]1CC3 | 43.2
20 | COc1cc(C)c(C(=O)Oc2cc(C)c(C(=O)O)c(O)c2C)c(OC)c1C | 0

Reformatted with tabs: part of the list above
Row	SMILES	loss of total cells [%]
14	c1ccc(CN(CC2=NCCN2)c2ccccc2)cc1	2.3
15	CC(C)(C)NCC(O)c1cc(O)cc(O)c1 (centres undefined)	-16.4

Going on with the list.

Row | SMILES | loss of total cells [%]
21 | CON | 5.4
22 | O=C(O)Cc1cc(I)c(Oc2ccc(O)c(I)c2)c(I)c1 | 13.8
23 | CC(=O)Oc1cc(OC(C)=O)c2c(c1)O[C@H](c1ccc(OC(C)=O)c(OC(C)=O)c1)[C@H](OC(C)=O)C2 | 12.3
24 | Cc1occc(=O)c1O | 8.1
25 | CC(=O)C1CCC2C3CC=C4CC(OS(=O)(=O)O)CCC4(C)C3CCC12C (centres undefined) | 10.8
26 | CC(=O)NCCCCCC(=O)O | -1.3
27 | c1coc(CNc2ncnc3[nH]cnc23)c1 | 2.9
28 | CC(=O)Nc1ccc(S(=O)(=O)c2ccc(NC(C)=O)cc2)cc1 | -15.6
29 | O=C(O)CCNC(=O)c1ccccc1 | 18.8
30 | CC1(C)S[C@@H]2[C@H](NC(=O)[C@H](N)c3ccc(O)cc3)C(=O)N2[C@H]1C(=O)O | 0
31 | CC(=O)Oc1cc(OC(C)=O)c2c(c1)O[C@H](c1ccc(OC(C)=O)c(OC(C)=O)c1)[C@@H](OC(C)=O)C2 | 14.2
32 | COCCc1ccc(OCC(O)CNC(C)C)cc1 (centres undefined) | -13.3
33 | O=C(O)C(S)C(S)C(=O)O (centres undefined) | 18.9
34 | O=c1[nH]cnc2c1ncn2[C@@H]1O[C@H](CO)[C@@H](O)[C@H]1O | -18.8
35 | CN(C(=O)CN(CCO)CC(=O)N(C)C(C)(C)Cc1ccccc1)C(C)(C)Cc1ccccc1 | 43
36 | CC(C)C[C@@H]1NC(=O)[C@H](CCCN)NC(=O)[C@H](C(C)C)NC(=O)[C@H](Cc2ccc(O)cc2)N[C@@H](CCC(=O)O)C(=O)N[C@@H](CC(N)=O)C(=O)[C@@H](Cc2ccccc2)NC(=O)[C@H](Cc2ccccc2)NC(=O)[C@@H]2CCCN2C(=O)[C@@H](Cc2ccccc2)NC1=O | 96.5
37 | COc1cc2c(cc1OC)-c1c(oc3cc(O)cc(O)c3c1=O)CO2 | 4.5
38 | Oc1ccc(/C=C/c2cc(O)cc(O)c2)cc1 [5-[2-(4-hydroxyphenyl)vinyl]-1,3-benzenediol] | 10.8
39 | CC(=O)OC1CCC2(C)C3=C(CC[C@H]2C1(C)C)[C@@]1(C)CC[C@@H]([C@@H](C)CCC=C(C)C)[C@]1(C)CC3 (some centres undefined) | 12.1
